Data from PubChem BioAssay (EPA / NIEHS).
The shares of active, inactive and inconclusive entries below differ from those in the screen. The calls were made as follows: active = hit-call score of the fitted dose curve at least 0.9, where 1 is the maximum; inconclusive = response in the unintended direction; inactive = score below 0.9. Potencies beside an inconclusive call are fits to weak or partial responses and may not hold up.

Assay: ACEA_AR_antagonist_AUC_viability: ACEA Biosciences xCELLigence Real-Time Cell Analysis on Androgen Receptor Antagonism for Viability (AID 2283776);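 also: 22Rv1 human prostate cancer cells growing on impedance electrode plates; area under impedance growth curve at 80 h after dosing as viability; hits lower the growth signal relative to DMSO meaning cytotoxicity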
Outline: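 22Rv1 prostate cells, continuous dosing up to 100 uM final (0.5% DMSO max), duplicate plates. Growth measured by impedance; AUC at 80 h, loss of signal vs DMSO.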

SMILES	AC50
C=CCCCCCCCCC(=O)O	inconclusive: 0.988 nM
C#C[C@]1(O)CC[C@H]2[C@@H]3CCC4=CC(=O)CC[C@@H]4[C@H]3CC[C@@]21C	inconclusive: 6.23 nM
CCCCCCC(C)(C)C(=O)O	inconclusive: 389 nM
